# Assay results reported in PubChem BioAssay AID1259415 (National Center for Advancing Translational Sciences (NCATS), 2018).
# Hit rate of the full screen: of about 410,000 compounds, about 18,000 (4.4%) were called active. Inconclusive results, whose numbers are uncertain, are shown with a selection of clear calls. No stated cut-off is given here; in the data, active means activity change below about -60%; inconclusive means no clear call, values can overlap the other calls; inactive means above about -39%.
# Assay: qHTS Assay for inhibitors of the human cytomegalovirus (HCMV)
# Details: HFF cells, HCMV-luciferase reporter, 72 h; at 57.5 µM; hits give low values
# Outline: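 HFF cells seeded 16 h at 37C, treated with compounds, infected with luciferase-reporter HCMV at MOI 1 PFU/cell; luciferase read at 72 h post infection, normalized to buffer-only and Salinomycin controls.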
# On the % scale 0 is the no-effect control and ±100 the full control effect.
row,Structure (SMILES),"activity change, negative = inhibition"
1,CCC(C)c1ccccc1OCCOCCN1CCCC1 (centres undefined),inactive: -30.9%
2,O=C(CCCSc1nc2ccccc2[nH]1)NCc1ccc(Cl)cc1,inconclusive: -48.8%
3,O=C(O)c1ccc(N/N=C/c2c(F)cccc2Cl)cc1,inconclusive: -42.5%
4,CC(C)(C)C(=O)Cn1ncc(N2CCOCC2)c(Cl)c1=O,inactive: 108%
5,Cc1ccccc1OCCCN1CCC(C(O)(c2ccccc2)c2ccccc2)CC1,inconclusive: -47.6%
6,O=S(=O)(c1cc(C(F)(F)F)ccc1Cl)N1CCN(c2ccccn2)CC1,inconclusive: -44.4%
7,O=C(CC1C(=O)NCCN1Cc1ccoc1)NCCc1ccc(Cl)cc1 (centres undefined),inconclusive: -40.7%
8,COc1ccc([C@H]2N[C@]3(CCCN(Cc4ccccc4)C3=O)[C@H]3C(=O)N(C)C(=O)[C@@H]23)cc1,inactive: 2.87%
9,COc1cc(NC(=O)CCCc2nnc3n(C)c(=O)c4sccc4n23)cc(OC)c1OC,inconclusive: -40.6%
10,COc1ccccc1N=C(C)C1=C(O)CSC1=O,inconclusive: -48.5%
11,Cn1nc(C(C)(C)C)cc1NC(=O)C1(C)CCN1C(=O)c1ccccc1CCc1ccccc1 (centres undefined),inconclusive: -44%
12,Cc1ccc(C)c(Cn2c(=O)n(Cc3ccccc3)c(=O)c3sc4ccccc4c32)c1,inactive: 5.75%
13,CCN(CC)C(=O)CC(c1cc(OC)c(OC)c(OC)c1)c1c(OC)cc(OC)c2c(-c3ccccc3)cc(=O)oc12 (centres undefined),inconclusive: -52.1%
14,COc1ccc(N2CCN(CCCNC(=O)C(=O)c3c(C)n(C)c4ccccc34)CC2)cc1,inconclusive: 0%
15,O=C(COc1ccc([N+](=O)[O-])cc1)Nc1ccccc1N1CCCC1,active: -64.3%
16,CCC(C)N1Cc2ccccc2C1=N (centres undefined),inconclusive: -54.4%
17,OCCC1CN(Cc2ccc3c(c2)CCO3)CCN1Cc1ccc(F)cc1 (centres undefined),inactive: -13%
18,Cn1c(/C=C/c2ccc(Cl)cc2Cl)c([N+](=O)[O-])c(=O)n(C)c1=O,active: -98%
19,O=C(COC(=O)c1ccccc1[N+](=O)[O-])c1ccc(C2CCCCC2)cc1,inconclusive: -54.6%
20,O=C(CNC(=O)c1ccccc1F)Nc1ccc2c(c1)OCO2,inactive: 47.1%
21,Oc1c(CN2CCCCC2)cc(COCc2ccccc2)c2cccnc12,active: -96.3%
22,CCCS(=O)(=O)N1CCC(Cc2ccc(OC)cc2)(C(=O)OCC)CC1,inconclusive: -58.9%
23,O=C(CNCc1ccco1)Nc1ccc(N2CCCCCC2)cc1,inactive: 1.71%
24,CCC(Nc1ccc(OC)cc1)C(=O)N/N=C/c1ccc([N+](=O)[O-])cc1 (centres undefined),inconclusive: -40.8%

# Part of the list above in order of heavy-atom count, low to high.
row,Structure (SMILES),"activity change, negative = inhibition"
9,COc1cc(NC(=O)CCCc2nnc3n(C)c(=O)c4sccc4n23)cc(OC)c1OC,inconclusive: -40.6%
14,COc1ccc(N2CCN(CCCNC(=O)C(=O)c3c(C)n(C)c4ccccc34)CC2)cc1,inconclusive: 0%
11,Cn1nc(C(C)(C)C)cc1NC(=O)C1(C)CCN1C(=O)c1ccccc1CCc1ccccc1 (centres undefined),inconclusive: -44%
